Drawing on PMC10338680, this text covers binding for one substance.

Sequences of proteins named here, by UniProt entry; tags and fusion partners are left off.
UniProt Q91Z31: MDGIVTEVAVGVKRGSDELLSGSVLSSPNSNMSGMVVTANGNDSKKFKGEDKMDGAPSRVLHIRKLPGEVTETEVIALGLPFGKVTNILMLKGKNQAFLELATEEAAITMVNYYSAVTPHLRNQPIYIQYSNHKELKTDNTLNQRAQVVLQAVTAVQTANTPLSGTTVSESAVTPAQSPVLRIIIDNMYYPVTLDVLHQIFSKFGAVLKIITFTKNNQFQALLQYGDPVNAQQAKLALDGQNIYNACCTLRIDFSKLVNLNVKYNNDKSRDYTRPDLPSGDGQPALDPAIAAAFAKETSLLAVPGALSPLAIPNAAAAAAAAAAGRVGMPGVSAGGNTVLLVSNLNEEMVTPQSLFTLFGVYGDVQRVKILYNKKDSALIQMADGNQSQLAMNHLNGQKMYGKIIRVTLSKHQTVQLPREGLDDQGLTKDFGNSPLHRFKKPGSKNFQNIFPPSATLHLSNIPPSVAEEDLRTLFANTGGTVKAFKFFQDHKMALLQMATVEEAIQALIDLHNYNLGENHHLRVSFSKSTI
UniProt Q6ZWX6: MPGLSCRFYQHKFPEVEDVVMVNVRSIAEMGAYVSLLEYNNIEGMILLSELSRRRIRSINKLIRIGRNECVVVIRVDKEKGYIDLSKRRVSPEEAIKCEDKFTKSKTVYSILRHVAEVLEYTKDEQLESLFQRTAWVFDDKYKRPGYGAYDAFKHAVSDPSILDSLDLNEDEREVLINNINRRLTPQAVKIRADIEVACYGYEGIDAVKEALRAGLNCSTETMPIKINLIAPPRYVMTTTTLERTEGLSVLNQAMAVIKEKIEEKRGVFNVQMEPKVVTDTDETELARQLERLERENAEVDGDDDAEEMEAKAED

Results are given in words; binding and its absence hold for the method and conditions named. Binding seen in cells or lysates may run through a third protein. Some results given as binding are weak or reduced against the parent protein; the word gives no strength.

This assay concerns the target Polypyrimidine tract-binding protein 2 (Ptbp2) (mouse (endogenous in primary mouse motoneurons)) (UniProt Q91Z31). Description: co-IP; anti-Ptbp2 on Protein A/G Dynabeads, primary mouse motoneuron lysate (10 mM HEPES pH 7.0, 100 mM KCl, 5 mM MgCl2, 0.5% NP-40), 2 h at 4 °C, immunoblot; IgG control; also with lysate treated with RNase A for 15 min.

For the substance “initiation factor eIF2α (from UniProt Q6ZWX6 1-315)”, the binding entry was “binds”.
